# Measurements as given in paper PMC2673211, “Nitric oxide activates ATP-sensitive potassium channels in mammalian sensory neurons: action by direct S-nitrosylation” (Molecular Pain, 2009).
# Tested on: DRG neurons
# Test: Intracellular ATP concentration by luciferin-luciferase assay
# Type: cell-based, rat
# Conditions: 10 minutes after stimulation with SNAP 100 μM
substance,measurement,setting,value
S-nitroso-N-acetylpenicillamine [SNAP],intracellular ATP concentration,"SNL rats, n = 6",0.47 ± 0.19 nmol/g protein
same,intracellular ATP concentration,"SS rats, n = 5",0.48 ± 0.14 nmol/g protein
